# The supplement of paper PMC10849652
# Amino acid sequences for entries named in this document (tags omitted). A change or cut given only in a name is not applied to a line headed by its entry.
# UniProt Q9GZX9: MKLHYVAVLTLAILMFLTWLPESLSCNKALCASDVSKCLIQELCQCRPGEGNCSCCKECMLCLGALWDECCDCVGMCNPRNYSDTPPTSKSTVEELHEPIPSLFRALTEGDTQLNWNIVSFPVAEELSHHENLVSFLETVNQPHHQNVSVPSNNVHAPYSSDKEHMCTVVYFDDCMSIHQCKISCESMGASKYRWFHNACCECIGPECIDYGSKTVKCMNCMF
# UniProt Q96B02: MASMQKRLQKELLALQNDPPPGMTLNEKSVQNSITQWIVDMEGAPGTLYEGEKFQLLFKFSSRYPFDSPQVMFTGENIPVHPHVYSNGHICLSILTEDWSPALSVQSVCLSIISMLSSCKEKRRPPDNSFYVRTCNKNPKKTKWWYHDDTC
# UniProt Q16222: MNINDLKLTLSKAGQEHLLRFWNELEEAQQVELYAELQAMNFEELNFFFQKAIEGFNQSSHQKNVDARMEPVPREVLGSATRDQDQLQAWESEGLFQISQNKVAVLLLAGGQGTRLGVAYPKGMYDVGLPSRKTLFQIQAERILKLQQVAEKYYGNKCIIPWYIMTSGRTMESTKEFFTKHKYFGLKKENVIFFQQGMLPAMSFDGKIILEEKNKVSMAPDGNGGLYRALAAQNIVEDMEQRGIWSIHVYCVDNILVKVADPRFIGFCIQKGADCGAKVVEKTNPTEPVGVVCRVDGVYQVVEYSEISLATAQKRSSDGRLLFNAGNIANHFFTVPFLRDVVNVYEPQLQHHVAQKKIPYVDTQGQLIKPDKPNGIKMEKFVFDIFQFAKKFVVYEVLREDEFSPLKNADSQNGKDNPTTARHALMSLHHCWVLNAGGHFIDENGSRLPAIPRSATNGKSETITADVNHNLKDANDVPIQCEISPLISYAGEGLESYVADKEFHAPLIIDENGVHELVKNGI
# UniProt P68543: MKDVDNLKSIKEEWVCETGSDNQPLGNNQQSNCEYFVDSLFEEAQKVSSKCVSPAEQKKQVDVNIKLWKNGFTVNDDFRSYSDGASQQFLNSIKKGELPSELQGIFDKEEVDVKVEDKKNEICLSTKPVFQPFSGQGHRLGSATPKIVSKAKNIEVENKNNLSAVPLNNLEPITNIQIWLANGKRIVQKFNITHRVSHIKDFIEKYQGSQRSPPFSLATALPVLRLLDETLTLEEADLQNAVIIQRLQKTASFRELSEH
# UniProt Q14157: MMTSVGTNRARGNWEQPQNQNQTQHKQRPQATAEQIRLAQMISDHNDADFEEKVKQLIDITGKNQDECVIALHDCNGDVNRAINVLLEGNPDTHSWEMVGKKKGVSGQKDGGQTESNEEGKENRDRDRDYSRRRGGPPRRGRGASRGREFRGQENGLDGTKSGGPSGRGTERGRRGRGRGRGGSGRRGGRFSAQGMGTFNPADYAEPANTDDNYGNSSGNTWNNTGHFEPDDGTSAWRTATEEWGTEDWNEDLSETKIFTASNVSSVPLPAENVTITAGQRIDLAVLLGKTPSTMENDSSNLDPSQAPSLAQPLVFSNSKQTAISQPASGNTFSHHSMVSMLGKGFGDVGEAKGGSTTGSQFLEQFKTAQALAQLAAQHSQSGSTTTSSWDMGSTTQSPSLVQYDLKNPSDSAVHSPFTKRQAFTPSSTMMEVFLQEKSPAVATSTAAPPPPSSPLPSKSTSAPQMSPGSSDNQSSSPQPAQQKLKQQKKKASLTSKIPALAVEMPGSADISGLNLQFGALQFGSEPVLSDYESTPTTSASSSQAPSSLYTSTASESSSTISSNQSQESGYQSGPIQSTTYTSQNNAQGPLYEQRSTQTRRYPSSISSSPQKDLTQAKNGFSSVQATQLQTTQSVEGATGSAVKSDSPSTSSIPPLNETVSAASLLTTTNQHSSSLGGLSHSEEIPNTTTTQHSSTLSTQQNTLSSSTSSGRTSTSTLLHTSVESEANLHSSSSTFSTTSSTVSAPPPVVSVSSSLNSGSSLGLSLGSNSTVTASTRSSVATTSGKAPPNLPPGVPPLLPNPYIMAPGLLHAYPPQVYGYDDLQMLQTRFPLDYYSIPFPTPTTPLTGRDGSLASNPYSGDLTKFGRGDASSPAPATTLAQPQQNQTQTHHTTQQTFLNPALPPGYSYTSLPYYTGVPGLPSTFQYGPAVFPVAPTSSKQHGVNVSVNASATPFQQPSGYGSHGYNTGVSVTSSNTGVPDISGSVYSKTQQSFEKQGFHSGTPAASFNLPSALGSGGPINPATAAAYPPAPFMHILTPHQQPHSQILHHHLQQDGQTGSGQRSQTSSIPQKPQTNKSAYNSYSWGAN
# UniProt Q8WVN8: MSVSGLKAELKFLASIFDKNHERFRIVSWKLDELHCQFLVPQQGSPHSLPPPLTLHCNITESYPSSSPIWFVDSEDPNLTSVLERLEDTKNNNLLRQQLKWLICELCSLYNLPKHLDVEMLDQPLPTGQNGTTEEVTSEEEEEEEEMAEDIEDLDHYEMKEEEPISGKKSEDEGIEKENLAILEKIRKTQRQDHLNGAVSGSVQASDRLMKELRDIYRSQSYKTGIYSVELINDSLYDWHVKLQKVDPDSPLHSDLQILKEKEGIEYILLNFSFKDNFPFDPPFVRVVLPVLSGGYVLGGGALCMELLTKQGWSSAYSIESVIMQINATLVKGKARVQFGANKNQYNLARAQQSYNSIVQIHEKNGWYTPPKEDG
# UniProt Q9BZL1: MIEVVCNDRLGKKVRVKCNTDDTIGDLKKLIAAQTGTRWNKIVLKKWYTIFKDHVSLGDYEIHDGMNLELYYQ
# UniProt Q96RR1: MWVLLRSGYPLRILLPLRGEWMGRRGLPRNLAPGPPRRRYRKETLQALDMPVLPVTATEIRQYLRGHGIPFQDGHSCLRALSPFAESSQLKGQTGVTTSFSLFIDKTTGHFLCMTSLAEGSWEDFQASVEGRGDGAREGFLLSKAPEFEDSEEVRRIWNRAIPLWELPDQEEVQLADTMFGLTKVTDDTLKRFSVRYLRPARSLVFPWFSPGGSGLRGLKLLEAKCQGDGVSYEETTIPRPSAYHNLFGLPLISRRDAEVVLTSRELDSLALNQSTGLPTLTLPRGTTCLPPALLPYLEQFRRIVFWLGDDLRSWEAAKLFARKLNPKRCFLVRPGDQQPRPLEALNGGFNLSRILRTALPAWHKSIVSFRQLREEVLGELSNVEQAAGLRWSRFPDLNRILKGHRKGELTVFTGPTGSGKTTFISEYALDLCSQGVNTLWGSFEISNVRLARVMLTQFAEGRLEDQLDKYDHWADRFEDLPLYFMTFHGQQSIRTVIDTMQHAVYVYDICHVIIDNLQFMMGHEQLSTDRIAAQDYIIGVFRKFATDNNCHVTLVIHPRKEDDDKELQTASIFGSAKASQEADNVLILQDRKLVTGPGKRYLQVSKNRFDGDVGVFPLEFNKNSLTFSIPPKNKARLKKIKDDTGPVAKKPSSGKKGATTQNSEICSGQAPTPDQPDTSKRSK
# UniProt P07437, whole entry, looked up: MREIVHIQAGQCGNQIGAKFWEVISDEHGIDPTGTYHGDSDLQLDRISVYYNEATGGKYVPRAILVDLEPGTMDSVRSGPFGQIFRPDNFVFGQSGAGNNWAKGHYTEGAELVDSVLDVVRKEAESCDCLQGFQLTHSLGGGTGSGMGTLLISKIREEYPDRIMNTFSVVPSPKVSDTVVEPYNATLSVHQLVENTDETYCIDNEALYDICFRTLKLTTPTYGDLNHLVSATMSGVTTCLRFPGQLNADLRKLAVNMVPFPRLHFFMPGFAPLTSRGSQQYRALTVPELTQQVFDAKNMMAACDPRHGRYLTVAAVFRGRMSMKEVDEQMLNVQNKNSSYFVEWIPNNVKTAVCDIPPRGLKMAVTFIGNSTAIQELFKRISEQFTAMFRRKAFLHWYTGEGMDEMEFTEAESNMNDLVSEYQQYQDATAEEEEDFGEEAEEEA
# UniProt P60604: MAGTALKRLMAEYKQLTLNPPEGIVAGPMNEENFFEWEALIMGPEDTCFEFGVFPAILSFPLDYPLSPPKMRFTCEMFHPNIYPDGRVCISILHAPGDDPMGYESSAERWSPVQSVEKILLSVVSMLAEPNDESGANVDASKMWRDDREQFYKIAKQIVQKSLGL
# UniProt Q9P2K2: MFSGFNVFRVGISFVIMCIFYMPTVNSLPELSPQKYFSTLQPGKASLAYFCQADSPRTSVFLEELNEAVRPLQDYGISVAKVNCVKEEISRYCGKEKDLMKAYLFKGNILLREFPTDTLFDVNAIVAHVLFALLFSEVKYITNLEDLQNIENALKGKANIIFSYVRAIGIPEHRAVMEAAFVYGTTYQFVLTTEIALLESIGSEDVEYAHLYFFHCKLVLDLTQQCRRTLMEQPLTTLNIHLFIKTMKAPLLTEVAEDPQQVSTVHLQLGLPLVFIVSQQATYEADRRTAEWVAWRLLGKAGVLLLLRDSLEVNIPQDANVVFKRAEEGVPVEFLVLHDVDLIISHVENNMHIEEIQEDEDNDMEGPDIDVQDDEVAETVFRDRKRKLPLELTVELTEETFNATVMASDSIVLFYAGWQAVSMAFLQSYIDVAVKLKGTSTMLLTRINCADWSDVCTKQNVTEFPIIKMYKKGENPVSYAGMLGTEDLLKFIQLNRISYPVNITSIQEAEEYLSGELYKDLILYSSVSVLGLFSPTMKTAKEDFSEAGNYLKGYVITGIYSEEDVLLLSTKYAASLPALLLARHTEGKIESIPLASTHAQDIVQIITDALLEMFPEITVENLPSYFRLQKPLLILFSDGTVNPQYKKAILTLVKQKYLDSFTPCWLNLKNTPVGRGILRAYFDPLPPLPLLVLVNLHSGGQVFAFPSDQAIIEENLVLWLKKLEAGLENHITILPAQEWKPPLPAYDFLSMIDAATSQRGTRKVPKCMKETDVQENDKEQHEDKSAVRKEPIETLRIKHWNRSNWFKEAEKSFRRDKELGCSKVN
# The other results are listed elsewhere or left out.
# Tests used:
# Assay in all cases: log2 fold change, soluble protein after heating vs DMSO (PISA); higher = thermal stabilisation; K562 lysate, 10 uM; active = over 0.2 and 3.5 SD of the protein, either way, in both replicates (recomputed)
# erlotinib = compound: C#Cc1cccc(Nc2ncnc3cc(OCCOC)c(OCCOC)cc23)c1 [erlotinib]
# In short: (§1)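 A 30 min treatment with 10 μM compound was applied to crude K562 extract at 1 mg/mL protein in PBS pH 7.4 with 1 mM MgCl2. Heating for 3 min spanned 48°C-58°C, after which aliquots were pooled, adjusted to 0.5% NP-40 at 4°C and spun at 21,000xg for 90 min. TMTpro 16plex LC-MS/MS of the supernatant, with channel sums equalised, gave values recorded as log-two fold change in thermal stability against solvent controls, from duplicates.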
# [1] = compound: C/C(=N\NC(=O)C1=CC(=CC=C1)S(=O)(=O)N2CCOCC2)/C3=C(C=CC(=C3)Cl)O
# In short: as §1
# [2] = compound: C1=CC(=CC=C1C2=NC3=C(N2)C=C(C=C3)C(=O)N)OC4=CC=C(C=C4)Cl
# In short: as §1
# [3] = compound: C1=CC2=C(C=CC(=C2)/C=C\3/C(=O)NC(=NCC4=CC=CS4)S3)N=C1
# In short: as §1
# [4] = compound: C1=CC2=NC=CN=C2C=C1/C=C/3\C(=O)NC(=O)S3
# In short: as §1
# [5] = compound: C1=CC=C(C=C1)C2=NC(=C(N2)C3=CC=NC=C3)C4=CC(=C(C=C4)Cl)O
# In short: as §1
# [6] = compound: C1=CC=C2C(=C1)C3=NNC4=CC=CC(=C43)C2=O
# In short: as §1
# [7] = compound: C1CCN(C1)C(=O)NC2=CC=CC(=C2)NC3=NC=C(C(=N3)NCCC4=CN=CN4)Br
# In short: as §1
# [8] = compound: C1CN(CCC1(CC2=CC=C(C=C2)Cl)N)C3=NC=NC4=C3C=CN4
# In short: as §1
# IRAK-1-4 Inhibitor I = compound: C1COCCN1CCN2C3=CC=CC=C3N=C2NC(=O)C4=CC(=CC=C4)[N+](=O)[O-] [IRAK-1-4 Inhibitor I]
# In short: as §1
# ibrutinib = compound: C=CC(=O)N1CCC[C@@H](n2nc(-c3ccc(Oc4ccccc4)cc3)c3c(N)ncnc32)C1 [ibrutinib]
# In short: as §1
# [9] = compound: CC(=O)c1cnc2ccc(-c3cc(Cl)c(O)c(Cl)c3)nc2c1N[C@H]1CC[C@H](CN(C)C)CC1
# In short: as §1
# ralimetinib = compound: CC(C)(C)Cn1c(N)nc2ccc(-c3[nH]c(C(C)(C)C)nc3-c3ccc(F)cc3)nc21 [ralimetinib]
# In short: as §1
# [10] = compound: CC(C)(O)CC(=O)NCCn1ccc2ncnc(Nc3ccc(Oc4cccc(C(F)(F)F)c4)c(Cl)c3)c21
# In short: as §1
# [11] = compound: CC(C)C1=C2N=C(C=C(N2N=C1)NCC3=CC=CC=C3)NCCCCCCN
# In short: as §1
# [12] = compound: CC1=C(C(CC(=O)N1)C2=CC=C(C=C2)C(F)(F)F)C(=O)NC3=C(C=C4C(=C3)C=NN4)F
# In short: as §1
# [13] = compound: CC1=C(C2=C(C=C1)C(=O)C3=CC=CC=C3N2CCCN)C
# In short: as §1
# [14] = compound: CC1=C(C=C(C=C1)NC(=O)C2=CC(=CC=C2)C(C)(C)C#N)NC3=CC4=C(C=C3)N=CN(C4=O)C
# In short: as §1
# [15] = compound: CC1=C(C=C(C=C1)NC(=O)C2=CC(=CC=C2)N(C)C)NC(=O)C3=CC=C(C=C3)O
# In short: as §1
# [16] = compound: CC1=CC=C(C=C1)SC2=C3C=C(SC3=CN=C2)C(=O)N
# In short: as §1
Target,log2 fold change (erlotinib),log2 fold change [1],log2 fold change [2],log2 fold change [3],log2 fold change [4],log2 fold change [5],log2 fold change [6],log2 fold change [7],log2 fold change [8],log2 fold change (IRAK-1-4 Inhibitor I),log2 fold change (ibrutinib),log2 fold change [9],log2 fold change (ralimetinib),log2 fold change [10],log2 fold change [11],log2 fold change [12],log2 fold change [13],log2 fold change [14],log2 fold change [15],log2 fold change [16]
TWSG1 (UniProt Q9GZX9),inactive: 0.026,inactive: 0.047,inactive: -0.016,inactive: -0.008,inactive: -0.055,inactive: -0.031,inactive: 0.084,inactive: 0.011,inactive: 0.012,inactive: 0.025,inactive: 0.076,inactive: -0.008,inactive: 0.002,inactive: -0.005,inactive: 0.016,inactive: -0.041,inactive: 0.146,inactive: -0.011,inactive: 0.045,inactive: -0.023
UBE2W isoform 3 (UniProt Q96B02),inactive: 0.117,inactive: -0.027,inactive: 0.051,inactive: 0.117,inactive: -0.083,,inactive: 0.004,,,,inactive: 0.189,,,,inactive: 0.041,,,,,
UCHL5 (UniProt Q5LJA9),inactive: -0.052,inactive: 0.084,inactive: 0.005,inactive: -0.024,inactive: -0.032,inactive: 0.016,inactive: -0.045,inactive: 0.035,inactive: 0.006,inactive: 0.054,inactive: 0.009,inactive: 0.078,inactive: -0.007,inactive: -0.113,inactive: 0.044,,inactive: 0,inactive: 0.012,inactive: 0.035,inactive: 0.01
UAP1 (UniProt Q16222),inactive: -0.014,inactive: 0.03,inactive: 0.011,inactive: -0.017,inactive: 0,inactive: -0.001,inactive: -0.016,inactive: -0.008,inactive: -0.011,inactive: -0.006,inactive: -0.011,inactive: 0.004,inactive: 0.027,inactive: 0.009,inactive: 0.013,inactive: -0.004,inactive: 0.008,inactive: -0.009,inactive: -0.01,inactive: 0.027
TUBB6 (UniProt K7ES63),inactive: -0.19,inactive: 0.058,inactive: -0.06,inactive: 0.047,inactive: -0.01,inactive: -0.154,inactive: -0.029,inactive: -0.19,inactive: -0.22,inactive: 0.048,inactive: -0.005,inactive: 0.076,inactive: 0.094,inactive: -0.07,inactive: 0.132,inactive: -0.061,,inactive: -0.005,inactive: 0.027,inactive: -0.098
UBR4 isoform 4 (UniProt Q5T4S7),inactive: 0.121,inactive: -0.209,inactive: -0.073,inactive: -0.071,,inactive: 0.136,inactive: 0.016,inactive: 0.119,inactive: -0.094,inactive: 0.097,,inactive: 0.131,inactive: -0.092,inactive: -0.201,inactive: 0.111,,inactive: 0.331,,inactive: -0.02,inactive: 0.034
UBXN2A (UniProt P68543),inactive: -0.029,inactive: -0.017,inactive: 0.082,inactive: 0.058,inactive: -0.108,inactive: 0.028,inactive: -0.176,,,inactive: 0.024,inactive: 0.096,inactive: -0.019,inactive: 0.048,inactive: -0.039,inactive: 0.015,,inactive: 0.004,inactive: -0.007,inactive: -0.001,inactive: 0.099
UBAP2L isoform 5 (UniProt Q14157),inactive: -0.021,inactive: -0.019,inactive: 0.035,inactive: 0.008,inactive: 0.027,inactive: -0.184,inactive: 0.065,inactive: 0.009,inactive: -0.023,inactive: 0.065,inactive: 0.024,inactive: 0.028,inactive: -0.026,inactive: -0.055,inactive: 0.019,inactive: 0.009,inactive: 0.024,active: -0.529,inactive: -0.009,inactive: 0.003
UBE2Q2 (UniProt Q8WVN8),inactive: -0.144,inactive: -0.187,inactive: 0.056,inactive: 0.132,inactive: -0.109,inactive: 0.035,inactive: -0.127,inactive: -0.001,inactive: -0.119,inactive: 0.281,inactive: 0.046,inactive: 0.061,inactive: 0.014,inactive: -0.058,inactive: 0.131,inactive: 0.026,inactive: -0.042,,inactive: -0.152,inactive: 0.086
UBL5 (UniProt Q9BZL1),inactive: 0,inactive: 0.002,inactive: -0.02,inactive: 0.011,inactive: -0.079,inactive: 0,inactive: 0.049,inactive: 0.029,inactive: 0.004,inactive: -0.062,inactive: 0.052,,inactive: -0.029,inactive: 0.04,inactive: -0.003,inactive: -0.056,inactive: 0.032,inactive: 0.038,inactive: 0.037,
TWNK (UniProt Q96RR1),inactive: 0.134,inactive: -0.156,inactive: 0.048,inactive: -0.114,inactive: 0.049,inactive: 0,inactive: -0.146,inactive: -0.095,inactive: 0.178,inactive: 0.26,inactive: 0.014,,inactive: -0.12,inactive: -0.337,inactive: -0.015,inactive: 0.057,inactive: -0.145,inactive: 0.166,inactive: -0.058,
TUBB (UniProt P07437),inactive: 0.029,inactive: -0.017,inactive: 0.014,inactive: -0.006,inactive: 0.008,inactive: 0.008,inactive: -0.03,inactive: 0.006,inactive: 0.043,inactive: 0.027,inactive: -0.013,inactive: 0.011,inactive: 0.038,inactive: -0.009,inactive: 0.037,inactive: 0.049,inactive: 0.003,inactive: 0.007,inactive: 0.014,inactive: 0.009
UBE2G2 (UniProt P60604),inactive: 0.129,inactive: -0.05,inactive: -0.105,inactive: -0.048,,inactive: -0.048,inactive: -0.125,inactive: -0.155,inactive: 0,inactive: 0.058,,inactive: -0.05,inactive: 0.055,inactive: -0.017,inactive: 0.13,inactive: 0.022,inactive: -0.036,inactive: 0.009,inactive: -0.02,inactive: 0.104
TXNDC16 (UniProt Q9P2K2),inactive: -0.062,inactive: 0.023,inactive: -0.047,inactive: 0.014,,inactive: -0.126,inactive: 0.055,,,inactive: 0.066,,inactive: 0.059,inactive: -0.19,inactive: -0.131,inactive: 0.149,,inactive: 0.036,inactive: 0.006,inactive: 0.045,inactive: -0.07
